According to PMC4303762, “Identification of PLXDC1 and PLXDC2 as the transmembrane receptors for the multifunctional factor PEDF” (eLife, 2014):

Tests used:
[1] = target: extracellular domain (ECD) deleted PLXDC1 (human); assay: binding of a biotinylated ligand to transfected cells, detected with streptavidin-alkaline phosphatase; biotinylated PEDF (20 nM) added to transfected or control HEK293 cells on a fibronectin-coated dish in HBSS, 10 mM HEPES pH 7.5, 2 mg/ml BSA, room temperature, 1 hour; washed, fixed, streptavidin-AP, NBT/BCIP; only the binder purified
[2] = target: extracellular domain (ECD) deleted PLXDC2 (human); assay: as above
[3] = target: intracellular domain deleted PLXDC2 (human); assay: as above
[4] = target: Rim-tagged PLXDC1 with domain D deleted (human); assay: co-IP; cotransfected cells lysed in 1% Triton X-100 in HBSS; Rim-tagged protein purified on anti-Rim antibody beads, 4 hr at 4°C; eluted at pH 2.3; copurified receptors detected by anti-HA or by antibody specific to PLXDC1 or PLXDC2

binding [1]: no binding (tested: 20 nM)
binding [2]: no binding (tested: 20 nM)
binding [3]: binds
B1: biotinylated PEDF (ligand, UniProt P36955 20-418)
chain: QNPASPPEEGSPDPDSTGALVEEEDPFFKVPVNKLAAAVSNFGYDLYRVRSSTSPTTNVLLSPLSVATALSALSLGAEQRTESIIHRALYYDLISSPDIHGTYKELLDTVTAPQKNLKSASRIVFEKKLRIKSSFVAPLEKSYGTRPRVLTGNPRLDLQEINNWVQAQMKGKLARSTKEIPDEISILLLGVAHFKGQWVTKFDSRKTSLEDFYLDEERTVRVPMMSDPKAVLRYGLDSDLSCKIAQLPLTGSMSIIFFLPLKVTQNLTLIEESLTSEFIHDIDRELKTVQAVLTVPKLKLSYEGEVTKSLQEMKLQSLFDSPDFSKITGKPIKLTQVEHRAGFEWNEDGAGTTPSPGLQPAHLTFPLDYHLNQPFIFVLRDTDTGALLFIGKILDPRGP
modifications: biotin (sulfo-NHS-SS-biotin; sites not stated)

binding [4]: no binding
B2: PLXDC1 in membranes of transfected HEK293 cells (copper phenanthroline crosslinking) (receptor, human, UniProt Q8IUK5 19-500, looked up)
chain: LSPQPGAGHDEGPGSGWAAKGTVRGWNRRARESPGHVSEPDRTQLSQDLGGGTLAMDTLPDNRTRVVEDNHSYYVSRLYGPSEPHSRELWVDVAEANRSQVKIHTILSNTHRQASRVVLSFDFPFYGHPLRQITIATGGFIFMGDVIHRMLTATQYVAPLMANFNPGYSDNSTVVYFDNGTVFVVQWDHVYLQGWEDKGSFTFQAALHHDGRIVFAYKEIPMSVPEISSSQHPVKTGLSDAFMILNPSPDVPESRRRSIFEYHRIELDPSKVTSMSAVEFTPLPTCLQHRSCDACMSSDLTFNCSWCHVLQRCSSGFDRYRQEWMDYGCAQEAEGRMCEDFQDEDHDSASPDTSFSPYDGDLTTTSSSLFIDSLTTEDDTKLNPYAGGDGLQNNLSPKTKGTPVHLGTIVGIVLAVLLVAAIILAGIYINGHPTSNAALFFIERRPHHWPAMKFRSHPDHSTYAEVEPSGHEKEGFMEAEQC
notes: human PLXDC1 with its cytoplasmic tail ending in the conserved cysteine; Detected by a Western blot for the receptor; also called the receptor; source: HEK293, transfected, in membrane preparation

No constants are given. Whether binding was seen depends on the method and setting. For some of these results: A result given as binding can be weak or reduced; the word gives no strength. For some of these results: In cells and extracts the contact can be indirect. For some of these results: Where a sequence is shown, tags or fusion partners need not be part of it. Each block holds one binder with its values, some of them ahead of it.
